# Library screen at single concentrations

Amino acid sequences for entries named in this document (tags omitted). Residues count along the entry.
UniProt Q4DA54, 1-478: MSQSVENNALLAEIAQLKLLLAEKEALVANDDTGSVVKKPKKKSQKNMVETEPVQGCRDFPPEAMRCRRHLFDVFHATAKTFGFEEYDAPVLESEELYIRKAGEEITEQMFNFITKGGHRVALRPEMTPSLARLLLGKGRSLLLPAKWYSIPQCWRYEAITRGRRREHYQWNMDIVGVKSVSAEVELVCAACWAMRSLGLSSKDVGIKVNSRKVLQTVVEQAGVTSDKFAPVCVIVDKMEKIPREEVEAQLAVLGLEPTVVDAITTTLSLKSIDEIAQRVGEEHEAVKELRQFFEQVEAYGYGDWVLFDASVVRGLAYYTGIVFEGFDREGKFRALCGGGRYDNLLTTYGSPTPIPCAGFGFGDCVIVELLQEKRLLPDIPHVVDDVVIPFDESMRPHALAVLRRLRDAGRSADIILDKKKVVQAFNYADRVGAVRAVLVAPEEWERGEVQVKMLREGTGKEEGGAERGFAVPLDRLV
UniProt A4I591, 1-473: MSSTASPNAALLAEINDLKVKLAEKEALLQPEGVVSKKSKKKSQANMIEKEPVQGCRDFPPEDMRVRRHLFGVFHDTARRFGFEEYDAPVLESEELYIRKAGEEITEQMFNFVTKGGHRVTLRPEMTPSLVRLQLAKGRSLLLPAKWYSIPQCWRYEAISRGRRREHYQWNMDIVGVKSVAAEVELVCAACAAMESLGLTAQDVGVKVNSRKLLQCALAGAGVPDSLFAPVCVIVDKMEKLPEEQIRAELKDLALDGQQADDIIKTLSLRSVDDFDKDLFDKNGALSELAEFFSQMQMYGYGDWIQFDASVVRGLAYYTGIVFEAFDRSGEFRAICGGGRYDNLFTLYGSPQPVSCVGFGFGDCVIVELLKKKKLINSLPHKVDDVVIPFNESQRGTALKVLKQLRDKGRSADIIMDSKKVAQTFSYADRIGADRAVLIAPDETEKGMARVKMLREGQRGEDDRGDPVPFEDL
UniProt Q8IDJ8, 1-583: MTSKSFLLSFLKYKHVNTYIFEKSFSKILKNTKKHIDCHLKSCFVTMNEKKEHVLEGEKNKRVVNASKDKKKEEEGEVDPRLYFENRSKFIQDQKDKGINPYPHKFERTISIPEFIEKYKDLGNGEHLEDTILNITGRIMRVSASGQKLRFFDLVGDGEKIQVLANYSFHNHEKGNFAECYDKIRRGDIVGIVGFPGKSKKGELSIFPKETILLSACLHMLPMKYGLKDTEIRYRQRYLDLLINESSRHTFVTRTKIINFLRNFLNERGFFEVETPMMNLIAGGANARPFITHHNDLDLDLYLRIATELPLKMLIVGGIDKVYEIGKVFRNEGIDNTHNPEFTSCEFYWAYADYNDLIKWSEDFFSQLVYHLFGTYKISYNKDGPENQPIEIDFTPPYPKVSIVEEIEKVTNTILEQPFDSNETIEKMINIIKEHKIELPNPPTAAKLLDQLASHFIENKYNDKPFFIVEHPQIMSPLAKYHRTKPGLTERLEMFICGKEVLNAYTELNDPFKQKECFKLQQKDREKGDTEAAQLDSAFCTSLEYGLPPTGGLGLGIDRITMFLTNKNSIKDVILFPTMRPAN

Data taken from ChEMBL document CHEMBL3988442, “University of Dundee, Small-Polar-MMV Screening Library” (2021).

TcHisRS: 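Enzyme assay of histidyl-tRNA synthetase; the read-out is not stated. Target: Histidine-tRNA ligase, Trypanosoma cruzi CL Brener (UniProt Q4DA54). Tested at 30 µM. The record gives no direction; compounds that gave an IC50 in retests scored well above the rest, so higher reads as stronger inhibition. Size under these conditions: about 69,000 compounds, about 31 of them at 50% or above in at least one test.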
LiHisRS: 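Histidine-tRNA ligase, Leishmania infantum (UniProt A4I591). Enzyme assay of histidyl-tRNA synthetase; the read-out is not stated. Concentration: 30 µM. Direction is inferred from retests: higher values go with stronger inhibition. The assay is labelled LdHisRS but filed under L. infantum. Of about 69,000 compounds tested this way, about 410 (0.6%) reached 50% or more in at least one test.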
PfKRS1: 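Lysine-tRNA ligase, Plasmodium falciparum 3D7 (UniProt Q8IDJ8). Enzyme assay of the cytosolic lysyl-tRNA synthetase in 384-well plates, read by luminescence. Tested at 30 µM. Higher reads as stronger inhibition, judged from the few compounds that gave an IC50. Of about 69,000 compounds tested this way, about 49 (0.071%) reached 50% or more in at least one test.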

Results are given as percent effect.
How 0% and 100% were set is not recorded. Most values in the screen are low, and negative values occur.
This is an unselected part of the compounds tested.

compound	TcHisRS	LiHisRS	PfKRS1
Cc1cc(N2CCCC(c3nncn3C3CC3)C2)ncn1 (centres undefined)	10.5%	2.41%	1.913%
COc1ccc(CNCc2ccc(N3CCCCC3)nc2)cc1OC	3.817%	-10.64%	0.4454%
CSCC(=O)N1CCc2nc(C)nc(NCc3ccccc3)c2CC1	3.03%	16.39%	6.618%
Cc1ccccc1C(=O)N1CCCn2nnc(Cn3cccn3)c2C1	4.598%	2.632%	1.232%
Cn1cc(N2C(=O)CC[C@@H]3[C@H]2CCN3CCc2ccccc2)cn1	2.857%	18.06%	-0.7784%
Cc1cc(C(=O)N2C[C@H]3CC[C@@H]2CN(Cc2ccccn2)C3)nc(N)n1	0.6494%	-4.839%	4.921%
COc1c(CNCC(c2cccc(F)c2)N(C)C)c(C(C)C)nn1C (centres undefined)	0.3774%	8%	-1.348%
COc1ccccc1[S+]([O-])CC(=O)NCc1cc(F)cc(F)c1 (centres undefined)	11.11%	19.18%	6.089%
CC(C)c1nnc2n1CCN(C(=O)c1ccnc(-n3ccnc3)c1)C2	1.729%	8.929%	0.6608%
CCOc1cccc(C(=O)NCCC(=O)NCc2ccncc2)c1	5%	17.81%	1.926%
CN(C)C(=O)CN1C(=O)[C@H]2CC[C@@H]1CN(Cc1ccccc1C#N)C2	0.5025%	18.4%	0.2574%
Cc1cc(CN2CCN(CC(O)c3ccc4c(c3)OCO4)CC2)no1 (centres undefined)	2.857%	6.78%	1.039%
CCNC(=O)NCc1nn(CCN2CCCC2)c(=O)c2ccccc12	9%	15.22%	-4.544%
Cc1cnc(C2CCCN(C(=O)c3c[nH]c(=O)[nH]c3=O)C2)s1 (centres undefined)	10.99%	15.94%	4.001%
CC1COCCN1C(=O)COc1cccc(Oc2ccccn2)c1 (centres undefined)	7.921%	21.74%	7.495%
Cc1cc(CN2CCN(C(=O)CCc3cccc(F)c3F)CC2)on1	-1.667%	5.769%	0.3932%
CCC(C)(C)NC(=O)C[S+]([O-])Cc1csc(C2CCCC2)n1 (centres undefined)	-2.299%	17.95%	-8.3%
CCN(CC1CCOC1)C(=O)c1ccc(N2CCOCC2)c(F)c1 (centres undefined)	0%	4.464%	1.587%
Cc1cc(C)n2nc(C(=O)N3CCCC4(CCOC4)C3)cc2n1 (centres undefined)	4.433%	6.579%	6.772%
Cc1ccc(C(=O)NCc2ccc(N(C)C)cc2)cn1	3.333%	9.402%	8.062%
CCN(Cc1cnn(C)c1)C(=O)c1cc2ccccc2c(=O)[nH]1	12.07%	14.91%	7.906%
COc1cccc(OC2CN(C(=O)c3sccc3C)C2)c1	1.554%	17.2%	7.941%
CO[C@@H]1CCC[C@@H](N(C)C(=O)c2cc(F)ccc2F)[C@H]1O	13.08%	14.08%	3.283%
CCN(CC)S(=O)(=O)NCCc1cc(C)ccc1OC	9.091%	20%	-0.2049%
CCN(Cc1ccc2c(c1)OCO2)C(=O)NC(C)Cn1ccnc1 (centres undefined)	5.764%	8.929%	2.882%
Cn1ccnc1CNC(=O)N(CCCO)C1CCc2ccccc21 (centres undefined)	3.333%	2.679%	8.692%
Cc1cc(C)n(Cc2ccc(-c3noc(C(=O)NCCCO)n3)cc2)n1	3.96%	1.099%	-5.217%
CCn1nc(C)c2nc(C(C)C)nc(NCCCn3cccn3)c21	3.478%	5.172%	8.685%
CN(Cc1ccco1)C(=O)CN1CCN(C)c2ccccc2C1	6.878%	23.53%	12.98%
Cc1ncccc1Oc1nccnc1C1CCN(C(C)C)CC1	-10.27%	-41.67%	2.848%
CN(Cc1nc2ccccc2c(=O)[nH]1)C1CC(=O)N(C2CC2)C1=O (centres undefined)	2.105%	16.44%	1.397%
Cc1ccc(S(=O)(=O)N2C[C@H](C3CC3)[C@@H](N)C2)cc1F	10.34%	9.677%	-0.5145%
Cn1cc(Cl)cc1C(=O)N1CCCN(Cc2cccs2)CC1	5.703%	16.8%	1.88%
O=C(c1ncncc1Cl)N1CCC2(CCCC2)CC1	10.92%	5.263%	2.026%
Cc1cccnc1NC(=O)C1CSc2ncc(C)c(=O)n2C1 (centres undefined)	4.819%	20.51%	8.376%
CC(Cn1cc(Br)cn1)C(=O)Nc1ccc(C(N)=O)cc1 (centres undefined)	3.509%	-1.77%	-0.3516%
CCN(CC)CC(=O)NCc1cccnc1-n1cnc2ccccc21	-2.041%	0%	7.638%
NCC(=O)N1CCCC(c2ccnc(Nc3cnccn3)n2)C1 (centres undefined)	3.333%	14.43%	2.561%
Cc1ccccc1-n1ncc2c(=O)n(CCN3CCCC3)cnc21	11.06%	19.51%	-1.492%
Cc1ccc(C(=O)NCC2Cc3ccccc3O2)cc1S(C)(=O)=O (centres undefined)	5.155%	14.52%	3.838%
Cc1cc(CN(CCO)c2ccccc2)on1	2.439%	6.78%	-3.197%
CNc1cc(N2CCCC2CNCc2ccccn2)ncn1 (centres undefined)	8.021%	15.38%	3.023%
CN(CC(=O)N1CC(C)(C)[C@](O)(C2CC2)C1)Cc1ccncc1	5.747%	0%	5.876%
CNC(=O)CN1CCC(NC(=O)Cc2ccccc2OC(C)C)CC1	4.202%	5.263%	5.706%
Cn1cc2c(n1)C(CNC(=O)Cc1ccsc1)OCC2 (centres undefined)	5.435%	4.854%	3.733%
O=C(CN1CCOC(Cn2cccn2)C1)NCc1ccco1 (centres undefined)	6.122%	20.18%	-0.9613%
CC(Cn1cccn1)NCc1csc(-c2ncccn2)n1 (centres undefined)	5.523%	11.4%	0.06352%
Cc1oc(-c2ccco2)nc1CN1CCc2cncnc2C1	18.09%	27.06%	1.287%
c1ccn(Cc2noc3c2CN(Cc2ccsc2)CC3)c1	2.299%	12%	1.817%
Cc1cccc(N2CCC(NC(=O)CCCc3cccs3)CC2)n1	1.653%	25%	-0.3362%
Cc1ccc([C@@H]2CN(C(=O)c3cccnn3)C[C@H]2NC(=O)C2CC2)cc1	-4.132%	20.95%	4.815%
CC1(C(=O)N2CCOCC2)CN(Cc2ccccc2F)CCO1 (centres undefined)	1.639%	6.569%	3.086%
CC(C)c1n[nH]c(C2CN(C(=O)c3cnccn3)CCO2)n1 (centres undefined)	2.312%	11.4%	-1.984%

The last 6 entries again:

| compound | TcHisRS | LiHisRS | PfKRS1 |
|---|---|---|---|
| `Cc1oc(-c2ccco2)nc1CN1CCc2cncnc2C1` | 18.09% | 27.06% | 1.287% |
| `c1ccn(Cc2noc3c2CN(Cc2ccsc2)CC3)c1` | 2.299% | 12% | 1.817% |
| `Cc1cccc(N2CCC(NC(=O)CCCc3cccs3)CC2)n1` | 1.653% | 25% | -0.3362% |
| `Cc1ccc([C@@H]2CN(C(=O)c3cccnn3)C[C@H]2NC(=O)C2CC2)cc1` | -4.132% | 20.95% | 4.815% |
| `CC1(C(=O)N2CCOCC2)CN(Cc2ccccc2F)CCO1` (centres undefined) | 1.639% | 6.569% | 3.086% |
| `CC(C)c1n[nH]c(C2CN(C(=O)c3cnccn3)CCO2)n1` (centres undefined) | 2.312% | 11.4% | -1.984% |